Results: PubChem BioAssay AID504582 (Broad Institute, 2011)
About 2,300 (0.68%) of roughly 340,000 compounds were called active. This list was built around the results that the source calls inconclusive (neither active nor inactive); the mix of calls is not that of the screen. Rule as the data show it: active = growth rescue above about 28% (passing the limit was not always enough); inconclusive = no clear call, values can overlap the other calls.

Experiment: rescue of yeast from PfHsp40 toxicity, primary screen, S. cerevisiae, ATP luminescence (AID 504582);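 also: yeast W303a lacking pdr1 and pdr3 grown in galactose medium; growth measured after three days at 30 °C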
Conditions: S. cerevisiae expressing PfHsp40, growth rescue, at 12.5 µM, active compounds read high

| SMILES | growth rescue |
| --- | --- |
| C[n+]1c(-c2ccccc2)c2cc(N)ccc2c2ccc(N)cc21 | active: 128% |
| Cc1ccc(C)c(-c2csc(-c3cccnc3)n2)c1 | inconclusive: 31.3% |
| Cc1cc(C)nc(SCC(=O)NN=Cc2ccc(C)o2)n1 | inconclusive: 36.4% |
| CC(Oc1ccc(Br)cc1)C(=O)Nc1nc(-c2ccccn2)cs1 (stereo not given) | inconclusive: 26.6% |
| O=C(OCc1nnc(-c2ccccc2)o1)c1ccc([N+](=O)[O-])s1 | inconclusive: 129% |
| Cc1ccccc1OCCOc1cccc(/C=N/NC(=O)Cc2nnc(N)s2)c1 | inconclusive: 29.2% |
| Cc1sc(NC(=O)CSC2=NCCS2)nc1-c1ccccc1 | inactive: 3.69% |
| CCC(C)(C)NC(=O)CN(Cc1ccc(OC)cc1)C(=O)CCC(=O)Nc1nccs1 | inconclusive: 34.9% |
| O=C(/C(=N/N=C/c1ccc(O)c(O)c1O)c1ccccc1)c1ccccc1 | active: 520% |
| NC(=O)c1ccc(SCC(=O)OCC(=O)N2CCN(C(=O)c3ccco3)CC2)c([N+](=O)[O-])c1 | inconclusive: 39.2% |
| Cc1cccc(Nc2nc(Cl)ncc2F)c1C | inconclusive: 84.2% |
| O=C(NC1CCCCC1)C1CCN(c2nnnn2-c2ccccc2)CC1 | inactive: -1.06% |
| O=C(/C=C/c1c(F)cccc1Cl)c1ccc(O)cc1 | active: 37.2% |
| O=C(Nc1nc(-c2ccc(Cl)s2)cs1)c1cccs1 | inconclusive: 56% |
| COc1ccc(C(=O)/C=C2/C(=O)Nc3ccccc32)c(OC)c1 | inconclusive: 58.5% |
| COc1ccccc1NC(=S)NNC(=O)c1ccccc1 | active: 28.9% |
| O=C(CN1C(=O)C2(OCCO2)c2ccccc21)c1ccc(Cl)cc1 | inconclusive: 40.4% |
| COc1ccc(CNS(=O)(=O)c2ccc(NC(=O)N3CCCCC3)cc2)cc1 | inconclusive: 79.4% |
| CC(=O)NCCc1nc2cc(NS(=O)(=O)c3ccc(Cl)cc3)ccc2n1C | inconclusive: 25.5% |
| CCCCOc1ccccc1Cn1c(=O)oc2ccccc21 | inconclusive: 25.2% |
| CCOc1cc(C(=O)OCC(=O)Nc2cccc(C)c2)ccc1OCC(=O)N1CCOCC1 | inconclusive: 26% |
| CC(C)(C)c1ccc(C(=O)Nc2ncn[nH]2)cc1 | inconclusive: 28.3% |
| N=C1c2ccccc2CN1NC(=O)c1ccc(Br)cc1 | inconclusive: 56.1% |

| SMILES | growth rescue |
| --- | --- |
| C/C(=N\Nc1ccc(Cl)c(Cl)c1)c1ccc(-n2ccnc2)cc1 | inconclusive: 162% |
| COc1ccc(C2CC(=O)C3=C(C2)NC(C)=C(C(=O)Nc2ccccc2C)C3c2coc3ccc(C)cc3c2=O)cc1OC (stereo not given) | active: 63.1% |
| COc1ccc2c(c1)CCc1c(C(=O)N3CCc4ccccc4C3)noc1-2 | active: 182% |
| Cc1ccc(NCCC(=O)c2ccc(Cl)cc2)cc1C | inactive: -2.12% |
| Cc1ccc(C2=NN(C(=O)CCl)C(c3ccco3)C2)o1 (stereo not given) | inactive: -0.803% |
| CCOC(=O)C1CCN(C(c2cc3c(C)ccc(C)c3[nH]c2=O)c2nnnn2C2CCCCC2)CC1 (stereo not given) | inactive: -0.333% |
| CCOC(=O)CC1NC(=O)c2ccccc21 (stereo not given) | inconclusive: 259% |
| O=C(O)c1cccc(Cn2cccn2)c1 | inactive: -0.34% |
| O=C(NCc1ccc2c(c1)OCO2)c1c(-c2ccsc2)sc2ccccc12 | inconclusive: 48.3% |
| O=C(N/N=C/c1cc(Br)cc(Br)c1O)c1cccc(N2CCCC2=O)c1 | inconclusive: 42% |
| CC[C@@]1(C(=O)OC)N[C@H](CN(C)S(=O)(=O)c2ccc(C(C)(C)C)cc2)[C@@H]2C(=O)N(C)C(=O)[C@@H]21 | inactive: 3.17% |
| CCOc1cccc(/C=N/NC(=O)c2cc(-c3cccn3C)n[nH]2)c1O | active: 36.3% |
| Cc1ccc2cc3c(N)c(C(=O)N4CCOCC4)sc3nc2c1 | inactive: -0.984% |
| O=C(O)c1ccc2c(c1)S(=O)(=O)c1ccccc1C2=O | inconclusive: 50.9% |
| c1ccc(-c2c(-c3ccccc3)n(Cc3ccco3)c3ncnc(NCCCn4ccnc4)c23)cc1 | active: 148% |
| COc1ccc(CN2CCNC(=O)C2CC(=O)N(C)Cc2ccncn2)c(OC)c1 (stereo not given) | inactive: -1.86% |
| O=C(NCCC1=CCCCC1)c1ccc(Cl)c([N+](=O)[O-])c1 | active: 34.2% |
| CC(=O)c1ccc(-c2cccc(-c3nc4ccccn4c3NC3CCCCC3)c2)cc1 | inconclusive: 26.2% |
| O=S(=O)(c1ccccc1)c1cnc(-c2cccnc2)nc1-c1ccc(Cl)cc1Cl | inactive: -0.153% |
| Cc1cccc(N2C(=O)c3cccc4cccc(c34)C2=O)c1 | inconclusive: 65.4% |
| O=c1c2cc(Br)ccc2nc(-c2ccc([N+](=O)[O-])cc2)n1O | active: 160% |
| C[N+]1(C)[C@@H]2CC(OC(=O)[C@H](CO)c3ccccc3)C[C@H]1[C@@H]1O[C@@H]12 (stereo not given in full) | inconclusive: 45% |
| CCOc1ccc(C(=O)Nc2ccc(Cc3ccncc3)cc2)cc1Br | active: 59.7% |

| SMILES | growth rescue |
| --- | --- |
| Cc1ccc(Oc2ccc(-c3nc(N)nc(N)n3)cc2)cc1 | inconclusive: 52.2% |
| COC(=O)[C@@H]1C[C@@]2(O)[C@H](O)[C@H](O)[C@H](O)C[C@H]2N1Cc1ccc(C)s1 | inactive: -1.59% |
| c1ccc(Nc2scc(-c3ccccc3)[n+]2Cc2ccco2)cc1 | inactive: -0.506% |
| Cc1ccc(NC2=CC(=O)C(=O)c3ccccc32)c(C)c1 | inconclusive: 40.3% |
| CS(=O)(=O)N(CC(=O)N1CCN(Cc2ccccc2)CC1)c1ccccc1Br | inactive: -0.408% |
| Cc1cc(NC(c2cccnc2)c2ccc3cccnc3c2O)no1 (stereo not given) | inconclusive: 37.9% |
| CN(C)/C=C/c1onc(-c2c(Cl)cccc2Cl)c1C#N | inactive: 0.48% |
| Cn1c(=O)c(/C=C/c2ccccc2)nc2ccccc21 | inactive: 0.25% |
| CCn1c(=O)cc(SCC(=O)Nc2ccc(C)cn2)c2ccccc21 | inconclusive: 35.6% |
| CC1CN(c2ccccc2)c2nc3c(c(=O)[nH]c(=O)n3C)n2C1 (stereo not given) | inactive: -1.25% |
| CCCCCC(=O)N/N=C(\C)c1ccc(NC(=O)c2ccco2)cc1 | active: 58.6% |
| Cc1ccc(NC(=O)N2CCN(c3ccccn3)CC2)cc1 | inconclusive: 31.9% |
| Cc1cccn2c(=O)c(/C=N/O)c(N3CCCC3)nc12 | inconclusive: 26.8% |
| CCOc1ccccc1CN1CCNC(=O)C1CC(=O)NCCc1ccccn1 (stereo not given) | inconclusive: 27% |
| NC(=O)NC(=O)COC(=O)CC12CC3CC(CC(C3)C1)C2 | inconclusive: 40% |
| CCOCCCNC(=O)C1(O)c2cc(Br)ccc2NC(=O)N1c1ccc(OCC)cc1 (stereo not given) | active: 50.7% |
| Cc1cc2cc(CNC(=O)Nc3ccccc3)ccc2[nH]1 | inactive: -1.05% |
| COc1cc(OC)cc(-c2cc3nc(C4CCN(C(=O)OC(C)(C)C)CC4)cc(=O)n3[nH]2)c1 | inconclusive: 33.4% |
| C=CCc1ccc(OCC(O)COc2ccc(CC=C)cc2OC)c(OC)c1 | active: 46.5% |
| Cc1ccc2c(c1)Cc1nc3ccccc3nc1-2 | inconclusive: 39.2% |
| Cc1nc2ccc(NC(=O)c3cccs3)cc2c(=O)n1Cc1ccc(Cl)cc1 | active: 30.7% |
| Cc1ccccc1-c1nc(C#N)c(N2CCCCC2)o1 | inactive: 5.76% |
| CCCCOc1cccc(-c2cc(C(=O)NNC(=S)NCC)c3ccccc3n2)c1 | active: 47.2% |

As a short view, part of the list above:

| SMILES | growth rescue |
| --- | --- |
| CCC(C)(C)NC(=O)CN(Cc1ccc(OC)cc1)C(=O)CCC(=O)Nc1nccs1 | inconclusive: 34.9% |
| O=C(/C(=N/N=C/c1ccc(O)c(O)c1O)c1ccccc1)c1ccccc1 | active: 520% |
| NC(=O)c1ccc(SCC(=O)OCC(=O)N2CCN(C(=O)c3ccco3)CC2)c([N+](=O)[O-])c1 | inconclusive: 39.2% |
| Cc1cccc(Nc2nc(Cl)ncc2F)c1C | inconclusive: 84.2% |
| O=C(NC1CCCCC1)C1CCN(c2nnnn2-c2ccccc2)CC1 | inactive: -1.06% |
| O=C(/C=C/c1c(F)cccc1Cl)c1ccc(O)cc1 | active: 37.2% |

Next structures

| SMILES | growth rescue |
| --- | --- |
| O=c1[nH]c(CO)nc2c1oc1ccccc12 | inconclusive: 29.2% |
| O=C(NCc1cccs1)c1ccncc1 | inconclusive: 35.5% |
| C=CCNC(=O)c1onc(CSc2cccc3ccccc23)c1C(=O)O | inconclusive: 87.2% |
| COc1cc(C(c2c(C)n(C)n(-c3ccccc3)c2=O)c2c(C)n(C)n(-c3ccccc3)c2=O)cc(Br)c1O | inactive: 0.843% |
| CCOc1cc(N2CCOCC2)c(OCC)cc1NC(=O)COC(=O)C1CCCN1S(=O)(=O)c1ccccc1F (stereo not given) | inactive: 0.185% |
| CCCCCC1CCC(c2n[nH]c(=S)n2C)CC1 (stereo not given) | inconclusive: 25.5% |
| CCCS(=O)(=O)N1CCCC(C(=O)NC2CCCC(C)C2C)C1 (stereo not given) | inactive: -0.993% |
| CN(C)CC(C)(C)CN=Cc1c(O)[nH]c2ccccc12 | inactive: 0.805% |
| COc1ccc(Cn2c(O)c(/C=N/NC(=O)c3cccnc3)c3ccccc3c2=O)cc1 | inconclusive: 213% |
| Cc1ccc(SCCNC(=S)Nc2ccc(C)c(C)c2)cc1 | active: 96.5% |
| O=c1[nH]c(=O)n([C@H]2C[C@H](O)[C@@H](CO)O2)cc1I | active: 75.9% |
| COc1ccc(-c2cc(-c3ccc(OC)cc3)[nH]n2)cc1 | active: 52.7% |
| O=[N+]([O-])c1cccc(-c2nc(-c3cccs3)c(-c3cccs3)[nH]2)c1 | inactive: 0.439% |
| Cc1cc(C)c(S(=O)(=O)N2CCOCC2)c(C)c1N(C)S(=O)(=O)c1ccccc1 | inconclusive: 50.8% |
| C=CCC[C@@H](Cc1ccc(F)cc1)C(=O)OCCNC(=O)[C@H](CC=C)CC(=O)NCCO | inconclusive: 27.4% |
| COCCCN1C(=O)/C(=C\c2cccs2)C(C(=O)OC)=C1C | inconclusive: 37.2% |
| COc1cccc2sc(N(CCCN(C)C)C(=O)c3ccc(S(=O)(=O)N4CCCc5ccccc54)cc3)nc12 | inactive: -1.46% |
| CC(=O)Nc1ccc(NC(=O)c2ccc(S(=O)(=O)N(C)c3ccccc3)cc2)cc1 | inconclusive: 25.5% |
| O=C(NC(=S)NNC(=O)[C@H]1C[C@@H]1c1ccccc1)c1cccc(F)c1 | active: 48.7% |
| O=C(c1cnc(-c2ccccc2)s1)c1ccc(Cl)cc1Cl | inactive: 0.224% |
| CCCC(CCC)c1nnc(NC(=O)c2ccco2)s1 | inconclusive: 27.4% |
